Measured values: PubChem BioAssay AID602441 (National Center for Advancing Translational Sciences (NCATS), 2012)
The campaign covered roughly 1,300 compounds. Fewer than 10 were called active. Roughly 9% stayed inconclusive and do not appear here. Calls follow the shape of the dose curve; as a rule, active = well fitted curve in the direction sought with a large enough effect; inconclusive = small, poorly fitted or top-dose-only effect, or another doubt; inactive = no such curve, though single readings can be large or run the other way. This is one part of the list.

assay: qHTS for antagonists of the Thyroid Stimulation Hormone Receptor: Hit Validation in Parental Cell Line; settings: parental HEK293 cells lacking TSHR, counter-screen; series mostly up to 56.9 µM; activity change, negative = inhibition: at the top concentration; also: 0% is about no effect
Procedure, shortened: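 Counterscreen in untransfected parental HEK-EM 293 cells. Lysate cAMP displaces cAMP-d2 from cryptate-tagged anti-cAMP antibody, and homogeneous TR-FRET is read at 665 nm with 337 nm excitation after stimulation.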

Row | Structure (SMILES) | activity change, negative = inhibition
1 | COCC1CCCCN1C(=O)C1CCN(c2nc(-c3ccccc3)nc3c2CCC3)CC1 (configuration not stated) | inactive: -0.886%
2 | c1ccc2c(COn3nnc4ccccc43)cccc2c1 | inactive: 1.54%
3 | CC(C)C1Nc2c(O)cc(Cl)c([N+](=O)[O-])c2C2C=CCC21 (configuration not stated) | inactive: 3.61%
4 | CCCC(=O)N(C1CC(C)C(C#N)(C#N)C1(C#N)C#N)N(C)C (configuration not stated) | inactive: -9.26%
5 | COc1cccc(OC)c1C(=O)Nc1sc2c(c1C#N)CCC2 | inactive: 1.03%
6 | CSCCCNC(=O)c1ccc(OC2CCN(C(=O)c3cccnc3)CC2)cc1 | inactive: 2.79%
7 | O=C(NN=C1CCCC1)c1cc(Cl)cc(Cl)c1O | inactive: 0.126%
8 | COc1ccc(NC(=O)CCC2CCCCC2)cc1S(=O)(=O)N1CCCCC1 | inactive: 1.02%
9 | CC(=O)c1cccc(NC(=O)c2sc3nc4n(c(=O)c3c2C)CCCC4)c1 | inactive: 3.67%
10 | COc1ccc(N2C(=O)NC(NS(=O)(=O)c3ccc(Cl)cc3)(C(F)(F)F)C2=O)cc1 (configuration not stated) | inactive: -0.246%
11 | CCc1noc(C)c1C(=O)Oc1ccc(N(C)S(=O)(=O)c2ccc(C)cc2)cc1 | inactive: 0.572%
12 | Cc1cccc(C)c1OCCCn1ccnc1 | inactive: 4.2%
13 | NC(=O)c1cc(S(=O)(=O)NCc2ccc(F)cc2)cs1 | inactive: 5.02%
14 | Cc1ccc(S(=O)(=O)N(CC(=O)NCc2ccccn2)c2ccc(Cl)cc2)cc1 | inactive: 2.85%
15 | Cc1ccc(C)c(S(=O)(=O)N2CCN(C(=O)C3CCN(c4ncnc5sc(C)c(C)c45)CC3)CC2)c1 | inactive: -5.61%
16 | O=C(Nc1nccs1)c1ccc(COc2c(F)c(F)cc(F)c2F)o1 | inactive: -1.76%
17 | COc1ccc(F)cc1CN1CCN(C(=O)CCC(=O)Nc2nnc(CC(C)C)s2)CC1 | inactive: -6.63%
18 | CCOc1cc(N2CCOCC2)c(OCC)cc1NC(=O)c1cc(S(=O)(=O)N2CCOCC2)ccc1C | inactive: 0.812%
19 | COc1cccc(CN(C)C(=O)c2ccc(Oc3ccccc3)cc2)c1OC | inactive: 2.59%
20 | CCOC(=O)N1CCN(C(=O)c2ccc(NS(=O)(=O)c3ccc(C)cc3)cc2)CC1 | inactive: 0.522%
21 | Cc1nc(NCCc2ccccc2)c(C#N)c(C)c1[N+](=O)[O-] | inactive: 0.962%
22 | COC(=O)C1C(=O)NC(SC)=C(C#N)C1c1ccccc1 (configuration not stated) | inactive: 2.62%
23 | COC(CNC(=O)c1cn(C)c2ccc(S(=O)(=O)N3CCOCC3)cc2c1=O)OC | inactive: 2.39%
24 | CCOc1cc(S(=O)(=O)n2cnc(C)c2)ccc1Cl | inactive: 1.58%
25 | O=C(Nc1nc(-c2ccccc2)cs1)c1ccccc1NS(=O)(=O)c1ccc(F)cc1 | inactive: -4.31%
26 | Cn1c2c(c(=O)n(C)c1=O)C(C(F)(F)F)(C(F)(F)F)N=C(c1ccc(Cl)cc1)N2 | inactive: 0.519%

Row | Structure (SMILES) | activity change, negative = inhibition
27 | N#Cc1nc(-c2ccccc2)oc1N1CCN(C(=O)c2ccco2)CC1 | inactive: -6.58%
28 | CC(C)Cc1csc(NC(=O)c2ccc(Br)cc2)c1C(=O)O | inactive: 5.96%
29 | O=C1C=C(c2ccc3[nH]ccc3c2)C[C@@H](c2ccc(Cl)cc2)C1 | inactive: -7.98%
30 | O=C1NC(=S)S/C1=C\c1ccc2ccccc2c1 | inactive: -3.05%
31 | O=C(O)c1ccc(S(=O)(=O)N(Cc2ccccc2)Cc2ccccc2)cc1 | inactive: 1.07%
32 | Cc1nnc(SCC(=O)Nc2nonc2C)s1 | inactive: 2.38%
33 | CC(=O)N/C(=C\c1ccc(Cl)cc1)C(=O)O | inactive: 7.1%
34 | COc1cccc(NC(=S)N2CCCN(Cc3ccc(F)cc3)C2)c1 | inactive: -4.55%
35 | Cc1ccc2c(CN3CCN(S(=O)(=O)c4ccc(Cl)cc4)CC3)cc(=O)oc2c1C | inactive: -0.247%
36 | O=C(O)/C=C/c1ccc(S(=O)(=O)Nc2ccccc2C(=O)Nc2ccc(F)cc2)cc1 | inactive: -0.409%
37 | COc1ccc(NC(=S)N(CCCN2CCOCC2)C(C)c2cc3cccc(OC)c3o2)cc1 (configuration not stated) | inactive: 1.87%
38 | Cc1ccc(-n2nc3c(=O)n(C(C)C(=O)NC4CC4)nc(C)c3c2C)cc1 (configuration not stated) | inactive: 0.548%
39 | O=C(Nc1ccc(C(F)(F)F)cc1)c1csc(-c2ccncc2)n1 | inactive: -1.76%
40 | Cc1c(C(=O)NCc2ccc3c(c2)OCO3)sc2nc(-c3ccccc3)cn12 | inactive: -2.35%
41 | CCOc1cc(C(=S)N2CCOCC2)ccc1OC(=O)c1ccccc1 | inactive: 4.47%
42 | CC(=O)c1ccc(NC(=O)C(C)N(C)CC(=O)Nc2ccc(N3CCOCC3)cc2)cc1 (configuration not stated) | inactive: 0.607%
43 | COc1ccc(C(c2nnnn2Cc2cccs2)N2CCN(c3ccccc3)CC2)cc1OC (configuration not stated) | inactive: 3.11%
44 | CSc1nsc(NC(=O)OCc2ccc(Cl)cc2)n1 | inactive: 1.32%
45 | CCOc1cc(/C=C(\C#N)c2nc(-c3cccs3)c(NC(C)=O)s2)ccc1O | inactive: 2.66%
46 | O=C(NC(=S)Nc1ccccc1)c1cc(-c2ccccc2)nc2ccccc12 | inactive: 3.92%
47 | O=C(CSc1ncnc2ccccc12)c1ccc2c(c1)OCCO2 | inactive: 5.67%
48 | Cc1c(C(=O)OC/C(O)=C(\C#N)c2nc3ccccc3[nH]2)oc2ccc(Br)cc12 | inactive: 3.5%
49 | COc1ccc(S(=O)(=O)Nc2ccc(C)cc2)cc1N(C)S(=O)(=O)c1ccc(Cl)cc1 | inactive: 2.85%
50 | Cc1cc(C=O)c(C)n1-c1ccc(NC2CCCC2)c([N+](=O)[O-])c1 | inactive: 5.23%
51 | O=C(Nc1ccccc1)c1nnsc1S(=O)(=O)c1ccc(Cl)cc1 | inactive: 6.33%
52 | CC(Sc1nn(-c2ccc(F)cc2)c(=S)s1)C(=O)c1c(N)n(C)c(=O)n(C)c1=O (configuration not stated) | inactive: -7.87%

Row | Structure (SMILES) | activity change, negative = inhibition
53 | CCCCCCOc1ccc(NC(=O)CC2C(=O)N(CC)C(=S)N2Cc2ccco2)cc1 (configuration not stated) | inactive: -0.899%
54 | Cn1cc(Cl)c(C(=O)N/N=C/c2ccc3c4c(cccc24)CC3)n1 | inactive: -6.33%
55 | COCCNC(=S)N1CCCN(c2nc3cc(C)ccc3cc2C#N)CC1 | inactive: -2.31%
56 | O=C(NC(Nc1nc2ccc([N+](=O)[O-])cc2s1)(C(F)(F)F)C(F)(F)F)c1ccccc1 | inactive: -4.16%
57 | O=S(=O)(Nc1cccc(-c2cn3cccnc3n2)c1)c1ccc(-c2ccccc2)cc1 | inactive: 3.62%
58 | CCc1nn(CC(=O)N2CCCCCC2)c(=O)c2cc3ccccc3n12 | inactive: 0.928%
59 | Cn1c(CNC(=O)C(Cc2ccccc2)NC(=O)c2ccccc2)cc(=O)n(C)c1=O (configuration not stated) | inactive: 3.33%
60 | O=C(c1ccccc1)c1ccc(Cn2cc(-c3ccccc3)nn2)cc1 | inactive: -0.645%
61 | CC(OC(=O)C1CCN(c2ccc(C(F)(F)F)cn2)CC1)C(=O)Nc1cccc([N+](=O)[O-])c1 (configuration not stated) | inactive: -5.48%
62 | COC(=O)c1cc(-c2c[nH]c3ccccc23)n[nH]1 | inactive: -5.11%
63 | Cc1ccc(SCC(=O)NCc2ccccc2C)cc1 | inactive: 2.23%
64 | CCC(C)(C)C1CCC(NC(=O)N2CCN(c3ccccc3O)CC2)CC1 (configuration not stated) | inactive: -0.155%
65 | C/C(=N/NS(=O)(=O)c1ccc(Br)cc1)c1ccc(NC(=O)c2ccc(C)o2)cc1 | inactive: 0.352%
66 | CC(C)C(c1nnnn1C(C)(C)C)N1CCN(c2cccc(Cl)c2)CC1 (configuration not stated) | inactive: -3.14%
67 | Oc1c(Cl)cc(Cl)c(Cl)c1Cc1c(O)c(Cl)cc(Cl)c1Cl | inactive: 0.712%
68 | O=C(Nc1ccc2nc3n(c(=O)c2c1)CCCCC3)C(=O)N1CCN(c2ccccc2F)CC1 | inactive: 1.09%
69 | COc1ccc(NS(=O)(=O)c2cc(NC(=O)/C=C/c3cc(OC)ccc3OC)ccc2N2CCCCC2)cc1 | inactive: 3.57%
70 | Cc1cc(=O)[nH]c(SCC(=O)Nc2ccc(Br)cc2)c1C#N | inactive: -3.68%
71 | CC(C)Cn1c(-c2csc3c2CCCC3)n[nH]c1=S | inactive: 2.13%
72 | COCCn1nnnc1C(c1cccs1)N1CCN(c2cc(C)ccc2C)CC1 (configuration not stated) | inactive: -0.758%
73 | Cc1nn(S(=O)(=O)c2ccccc2)c(C)c1Sc1ccc([N+](=O)[O-])cc1 | inactive: -3.75%
74 | Cc1nc2ccc(Nc3nc4cc(S(=O)(=O)N5CCOCC5)ccc4o3)cc2s1 | inactive: -7.93%
75 | CC(C)COc1cccc(-c2cc(C(=O)Nc3ccon3)c3ccccc3n2)c1 | inactive: 0.601%
76 | CCOC(=O)N1CCN(C(=O)CCc2ccccc2)CC1 | inactive: 4.67%
77 | CCOC(=O)c1sc(NC(=O)CSc2n[nH]c(-c3ccncc3)n2)c(C#N)c1C | inactive: -2.27%
78 | c1ccc(CNc2ncnc3scc(-c4cccs4)c23)nc1 | inactive: 1.13%

In the list so far, these have an aryl thioether with sulfur outside any ring.
Row | Structure (SMILES) | activity change, negative = inhibition
32 | Cc1nnc(SCC(=O)Nc2nonc2C)s1 | inactive: 2.38%
44 | CSc1nsc(NC(=O)OCc2ccc(Cl)cc2)n1 | inactive: 1.32%
47 | O=C(CSc1ncnc2ccccc12)c1ccc2c(c1)OCCO2 | inactive: 5.67%
52 | CC(Sc1nn(-c2ccc(F)cc2)c(=S)s1)C(=O)c1c(N)n(C)c(=O)n(C)c1=O (configuration not stated) | inactive: -7.87%
63 | Cc1ccc(SCC(=O)NCc2ccccc2C)cc1 | inactive: 2.23%
70 | Cc1cc(=O)[nH]c(SCC(=O)Nc2ccc(Br)cc2)c1C#N | inactive: -3.68%
73 | Cc1nn(S(=O)(=O)c2ccccc2)c(C)c1Sc1ccc([N+](=O)[O-])cc1 | inactive: -3.75%
77 | CCOC(=O)c1sc(NC(=O)CSc2n[nH]c(-c3ccncc3)n2)c(C#N)c1C | inactive: -2.27%

Reformatted tab-delimited: two of the compounds above
Row	Structure (SMILES)	activity change, negative = inhibition
7	O=C(NN=C1CCCC1)c1cc(Cl)cc(Cl)c1O	inactive: 0.126%
40	Cc1c(C(=O)NCc2ccc3c(c2)OCO3)sc2nc(-c3ccccc3)cn12	inactive: -2.35%

Going on with the list.

Row | Structure (SMILES) | activity change, negative = inhibition
79 | CCOc1ccc2nc(SC3CC(=O)N(c4ccccc4)C3=O)sc2c1 (configuration not stated) | inactive: 2.27%
80 | O=C(COc1ccc(-c2ccccc2)cc1)Nc1cccnc1 | inactive: -1.76%
81 | CC(C)(C)NC(=O)C(c1ccc(O)cc1)N(Cc1ccccc1)C(=O)CCC(=O)Nc1nccs1 (configuration not stated) | inactive: -0.917%
82 | Cc1cc(C(=O)NC2CCCc3c2cnn3-c2ccc(C(C)(C)C)cc2)nn1C (configuration not stated) | inactive: 3.91%
83 | CC(NC(=O)c1ccc([N+](=O)[O-])o1)C12CC3CC(CC(C3)C1)C2 (configuration not stated) | inactive: 3.84%
84 | CC1CCN(Cc2c(C(=O)N/N=C/c3cc(Cl)ccc3O)nnn2-c2nonc2N)CC1 | inactive: 5.93%
85 | CCc1cc2c(NCc3ccccc3)nc(C)nc2s1 | inactive: -2.57%
86 | O=S(=O)(Nc1ccc2cn[nH]c2c1)c1cc(Br)ccc1Br | inactive: -1.89%
87 | CC1(C)CC(=O)c2c(nc3ccccc3c2N)C1 | inactive: 1.27%
88 | COc1cccc(-c2nc(CS(=O)(=O)CC(=O)N3CCCCC3)c(C)o2)c1 | inactive: 1.63%
89 | O=C(c1cc(COc2cccc3cnccc23)on1)N1CCCC(CCCO)C1 (configuration not stated) | inactive: -1.72%
90 | CCC(=O)OCCNc1cc(Sc2nc3ccccc3[nH]2)c2nonc2c1[N+](=O)[O-] | inactive: -1.9%
91 | Cc1ccc(C(=O)COC(=O)CCN2C(=O)C3C4CCC(C4)C3C2=O)cc1[N+](=O)[O-] (configuration not stated) | inactive: 0.395%
92 | COc1ccc(C(=O)/C=C/Nc2ccc(S(=O)(=O)Nc3cccc(C(C)=O)c3)cc2)cc1 | inactive: -4.49%
93 | Cc1ccc(NC(=O)Cn2nnc(C(=O)NCCc3ccccc3)c2N)c(C)c1 | inactive: 5.5%
94 | CC(C)c1ccc(/C=C/C(=O)NCCC2=CCCCC2)cc1 | inactive: 5.35%
95 | COc1ccc(-c2nnc(NC(=O)c3ccc4c(c3)OCCO4)o2)cc1 | inactive: -3.16%
96 | COc1cc2c(cc1OC)CN(C(=S)NC(=O)c1ccccc1)CC2 | inactive: 0.268%
97 | O=C(Nc1ccncc1)C1CCN(S(=O)(=O)c2cccc(C(F)(F)F)c2)CC1 | inactive: 0.358%
98 | COc1ccc(NC(=O)/C(Cl)=C(/Cl)S(=O)Cc2ccc(Cl)cc2)cn1 (configuration not stated) | inactive: 8.76%
99 | O=c1[nH]c(=S)[nH]c2c1CN(Cc1ccc(F)cc1)CC2 | inactive: 3.31%
100 | COc1cccc(CNC(=O)CN2C(=O)CSc3ccc(S(=O)(=O)N4CCOCC4)cc32)c1 | inactive: 2.37%
101 | CC1CCCC(N2CCN(S(=O)(=O)c3ccccc3)CC2)C1 (configuration not stated) | inactive: 4.68%
102 | Cc1nn(-c2ccc(N3CCOCC3)nn2)c(C)c1CCC(=O)NCc1ccccc1F | inactive: 3.95%
